Data taken from the supplement of paper PMC9233669.
Variants at the background level are over-represented here.

What was measured:
biotinyl-Phe-oxazolone = assay: self-aminoacylation, catalytic enhancement (BFO) (fold over background); higher = more active; k-Seq, kA / k0A0; sequences stand for … in GGGAAUGGAUCCACAUCUACGAAUUC…UUCACUGCAGACUUGACGAAGCUG
Method in brief: (§1)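 The uncatalyzed rate is the low-activity peak of a bimodal Gaussian fit, and catalytic enhancement is median kA divided by it. The kA values came from pseudo-first-order fits, with 1000 bootstraps, of per-sequence fraction reacted measured by streptavidin capture, triplicate qPCR and Illumina sequencing. Mutagenized RNA pools with a 21-nt variable region (0.43 μM) were reacted with each biotinyl-aminoacyl-oxazolone at 2–1250 μM in 50 μL HEPES/NaCl/KCl/MgCl2/CaCl2 buffer with 5% acetonitrile, pH 6.9–7.0, for 90 minutes at room temperature.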

biotinyl-Leu-oxazolone = assay: self-aminoacylation, catalytic enhancement (BLO) (fold over background); higher = more active; k-Seq, kA / k0A0; sequences stand for … in GGGAAUGGAUCCACAUCUACGAAUUC…UUCACUGCAGACUUGACGAAGCUG
Method in brief: as §1

biotinyl-Met-oxazolone = assay: self-aminoacylation, catalytic enhancement (BMO) (fold over background); higher = more active; k-Seq, kA / k0A0; sequences stand for … in GGGAAUGGAUCCACAUCUACGAAUUC…UUCACUGCAGACUUGACGAAGCUG
Method in brief: as §1

biotinyl-Val-oxazolone = assay: self-aminoacylation, catalytic enhancement (BVO) (fold over background); higher = more active; k-Seq, kA / k0A0; sequences stand for … in GGGAAUGGAUCCACAUCUACGAAUUC…UUCACUGCAGACUUGACGAAGCUG
Method in brief: as §1

biotinyl-Ile-oxazolone = assay: self-aminoacylation, catalytic enhancement (BIO) (fold over background); higher = more active; k-Seq, kA / k0A0; sequences stand for … in GGGAAUGGAUCCACAUCUACGAAUUC…UUCACUGCAGACUUGACGAAGCUG
Method in brief: as §1

biotinyl-Trp-oxazolone = assay: self-aminoacylation, catalytic enhancement (BWO) (fold over background); higher = more active; k-Seq, kA / k0A0; sequences stand for … in GGGAAUGGAUCCACAUCUACGAAUUC…UUCACUGCAGACUUGACGAAGCUG
Method in brief: as §1

Sequence	self-aminoacylation (biotinyl-Phe-oxazolone)	self-aminoacylation (biotinyl-Leu-oxazolone)	self-aminoacylation (biotinyl-Met-oxazolone)	self-aminoacylation (biotinyl-Val-oxazolone)	self-aminoacylation (biotinyl-Ile-oxazolone)	self-aminoacylation (biotinyl-Trp-oxazolone)
CCAGACCUCAAGCAAUCGGUC [Fam1B.1 aminoacylation ribozyme variant]	1.78	1.86	1.44	1.94	1.58	1.37
CCAGACUUCAAGCAAUCAGUC [Fam1B.1 aminoacylation ribozyme variant]	12.6	1.03	0.826	0.837	1.04	5.08
CCAGACUUCAAGCAAUCGGUA [Fam1B.1 aminoacylation ribozyme variant]	1.22	1.16	1.66	1.4	1.41	1.75
CCAUACUUCAAGCAAUCGGCC [Fam1B.1 aminoacylation ribozyme variant]	2.88	2.33	2.36	1.8	1.91	3.74
CCGCACUUCAAGCAAUCGGUA [Fam1B.1 aminoacylation ribozyme variant]	1.71	1.41	1.45	1.64	1.09	2.16
CCGCACUUCAAGCAAUUGGUC [Fam1B.1 aminoacylation ribozyme variant]	1.33	0.853	0.679	0.748	0.872	1.27
CCGCACUUCAAGCCAUCGGUC [Fam1B.1 aminoacylation ribozyme variant]	2.13	1.96	1.53	2.26	1.66	2.01
CCUCACGUCAAGCAAUCGGUC [Fam1B.1 aminoacylation ribozyme variant]	1.81	1.06	1.05	1.65	1.13	1.04
CCUCACUUCAAGAAAUCGGUC [Fam1B.1 aminoacylation ribozyme variant]	11	1.32	1.04	0.909	1.06	7.71
CCUCACUUCAAGCAAACGGUC [Fam1B.1 aminoacylation ribozyme variant]	1.34	0.625	0.481	0.843	0.665	0.839
CCUCACUUCACGCAAUCGGUC [Fam1B.1 aminoacylation ribozyme variant]	1.04	0.752	0.916	1.1	1.17	1.17
CCUCACUUCUAGCAAUCGGUC [Fam1B.1 aminoacylation ribozyme variant]	1.31	0.698	0.617	0.769	0.715	0.681
CGACUUCGAACAAUCGGUCUG [Fam1A.1 aminoacylation ribozyme variant]	1.83	0.978	1.04	1.1	1.14	0.992
CUAAGUCAAACAAUCGGUCUG [Fam1A.1 aminoacylation ribozyme variant]	1.08	0.87	0.885	0.784	0.854	0.887
CUAAUACAAACAAUCGGUCUG [Fam1A.1 aminoacylation ribozyme variant]	0.757	0.477	0.674	0.682	0.676	0.678
CUAAUUCAAACAAUCGGUAUG [Fam1A.1 aminoacylation ribozyme variant]	1.47	0.511	0.55	0.592	0.54	0.787
CUAAUUCAAACAAUCGGUCGG [Fam1A.1 aminoacylation ribozyme variant]	2.14	0.84	0.791	0.765	0.729	1.69
CUAAUUCACACAAUCGGUCUG [Fam1A.1 aminoacylation ribozyme variant]	0.759	0.85	0.874	0.771	0.912	0.598
CUACACUUCAAGCAAACGGUC [Fam1B.1 aminoacylation ribozyme variant]	0.776	0.525	0.546	0.563	0.576	0.452
CUACACUUCAAGCAAUCGCUC [Fam1B.1 aminoacylation ribozyme variant]	0.667	1.3	1.19	1.07	1.58	0.984
CUACACUUCAAGCAAUCUGUC [Fam1B.1 aminoacylation ribozyme variant]	0.801	0.273	0.382	0.433	0.322	0.283

Sequence	self-aminoacylation (biotinyl-Phe-oxazolone)	self-aminoacylation (biotinyl-Leu-oxazolone)	self-aminoacylation (biotinyl-Met-oxazolone)	self-aminoacylation (biotinyl-Val-oxazolone)	self-aminoacylation (biotinyl-Ile-oxazolone)	self-aminoacylation (biotinyl-Trp-oxazolone)
CUACACUUCAAGCAAUUGGUC [Fam1B.1 aminoacylation ribozyme variant]	1.15	0.449	0.454	0.593	0.572	0.63
CUACAUCAAACAAUCUGUCUG [Fam1A.1 aminoacylation ribozyme variant]	0.795	0.624	0.533	0.736	0.722	0.497
CUACAUCAAACAGUCGGUCUG [Fam1A.1 aminoacylation ribozyme variant]	0.766	0.886	0.945	1.15	0.866	0.579
CUACAUCAAACUAUCGGUCUG [Fam1A.1 aminoacylation ribozyme variant]	1.04	0.898	0.962	1.04	1.05	0.949
CUACAUCACACAAUCGGUCUG [Fam1A.1 aminoacylation ribozyme variant]	1.21	0.827	0.842	0.868	0.882	0.687
CUACCACAAACAAUCGGUCUG [Fam1A.1 aminoacylation ribozyme variant]	1.33	0.568	0.75	0.805	0.812	0.664
CUACCCCAAACAAUCGGUCUG [Fam1A.1 aminoacylation ribozyme variant]	0.461	0.891	0.944	1.07	0.851	0.653
CUACCUCAAACAAUCGAUCUG [Fam1A.1 aminoacylation ribozyme variant]	0.974	0.645	0.582	0.581	0.678	0.479
CUACCUCAAACAAUCGGCCUG [Fam1A.1 aminoacylation ribozyme variant]	3.13	2.11	1.47	1.86	1.87	5.05
CUACCUCAAUCAAUCGGUCUG [Fam1A.1 aminoacylation ribozyme variant]	1.85	0.785	0.828	0.871	0.8	1.44
CUACCUCGAACAAUCGGUCUG [Fam1A.1 aminoacylation ribozyme variant]	0.586	1.15	0.79	1.11	0.912	0.876
CUACGUCAAACAAUCAGUCUG [Fam1A.1 aminoacylation ribozyme variant]	1.05	0.808	0.824	0.792	0.884	0.646
CUACGUCAAACAAUCGCUCUG [Fam1A.1 aminoacylation ribozyme variant]	3.08	2.07	1.85	1.7	1.71	1.16
CUACGUCAAACAAUCGGUCGG [Fam1A.1 aminoacylation ribozyme variant]	1.23	1.62	1.33	1.19	1.12	1.18
CUACGUCAAACAAUCUGUCUG [Fam1A.1 aminoacylation ribozyme variant]	1.01	0.806	0.872	0.821	0.907	0.435
CUACUACAAACAAUCGGUUUG [Fam1A.1 aminoacylation ribozyme variant]	0.865	0.518	0.535	0.606	0.625	0.473
CUACUACAAGCAAUCGGUCUG [Fam1A.1 aminoacylation ribozyme variant]	0.604	0.926	0.605	0.715	0.742	0.633
CUACUACAGACAAUCGGUCUG [Fam1A.1 aminoacylation ribozyme variant]	0.614	1.05	0.694	0.796	0.801	0.482
CUACUAUAAACAAUCGGUCUG [Fam1A.1 aminoacylation ribozyme variant]	0.742	0.805	0.803	0.928	0.808	0.766
CUACUCCAAACAACCGGUCUG [Fam1A.1 aminoacylation ribozyme variant]	0.699	0.9	0.806	1.1	1.17	1.26
CUACUCCAAACAAUCGGUCAG [Fam1A.1 aminoacylation ribozyme variant]	1.22	0.603	0.567	0.715	0.728	0.934
